Test results: patent publication US20240115706A1
Substitutions are numbered along the chain they refer to. Results are given in words; binding and its absence hold for the method and conditions named. Some entries that bind do so weakly or less than the wild type. Each block holds one binder with its values, some of them ahead of it.

What was measured:
[1] = molecular target: human GUCY2C-rCD4 fusion protein (Homo sapiens (human); Rattus norvegicus); experiment: ELISA (DELFIA)
[2] = molecular target: human GUCY2C-rCD4 fusion protein (Homo sapiens (human); Rattus norvegicus); experiment: ELISA (DELFIA); ELISA, statement on all 18 scFvs: binds

B5: scFv A12 (scFv)
scFv: EVQLVQPGAEVKKPGSSVKVSCKASGGTLSSYAISWVRQAPGQGLEWMGRIIPILGITNYAQKFQGRVTITADKSTSTAYMELSSLRSEDTAVYFCARDQRPASMDVWGQGTLVTVSSGGGGSGGGGSGGGASQSELTQPASVSGSPGQSITISCTGTSSDVGGYIYVSWYQQHPGKVPKLMIHDVSHRPSGVSNRFSGSRSGNTASLTISGLQAEDEADYFCSSYTSSNNYVFGTGTKVTVL
binding [1]: binds

B6: scFv B01 (scFv)
scFv: EVQLVQPGAEVKKPGSSVKVSCKASGGTLSSYAISWVRQAPGQGLEWMGRIIPILGITNYAQKFQGRVTITADKSTSTAYMELSSLRSEDTAVYFCARDQRPASMDVWGQGTLVTVSSGGGGSGGGGSGGGASQSGLTQPASVSGSPGQSITISCTGTSSDVGGYNYVSWYQQHPGKAPKLMIYEVSNRPSGVSNRFSGSKSGNTASLTISGLQAEDEADYYCSTVTSLSTYVFGTGTKLTVL
binding [1]: binds

B7: scFv A05 (scFv)
scFv: QVQLVQSGAEVKKPGSSVKVSCKASGGTFSSYTITWVRQAPGQGLEWMGRIIPVLGIANYAQKFQGRVTITADKSTSTAYMELSSLRSEDTAVYYCARDYSSSWNSMDVWGQGTLVTVSSGGGGSGGGGSGGGASQSGLTQPRSVSGSPGQSVTISCTGTSSDVGGYNYVSWYQQHPGKAPKLMIYDVSKRPSGVPDRFSGSKSGNTASLTVSGLHAEDEADYYCSSYAGSNNFVFGTGTKVTVL
binding [1]: binds

B8: scFv A06 (scFv)
scFv: B7 scFv with S30G, T35S, V54I, G166A, D187E, G201A, H216Q, F234W, T238G, V242L
binding [1]: binds

B11: scFv B07 (scFv)
scFv: EVQLVQSGAEVKRPGSSVKVSCKASGYTFTSYYMHWVRQAPGQGLEWMGIINPSGGSTSYAQKFQGRVTMTRDTSTSTVYMELSSLRSEDTAVYYCAAGTYSSGWTIDYWGQGTTVTVSSGGGGSGGGGSGGGASDIVMTQSPLSLPVTLGQPASISCRSSQSLVYTDGNTYLNWFQQRPGQSPRRLIYKVSNRDSGVPDRFSGSGSGTDFTLKISRVEAEDVGIYYCMHSKQWPPTFGGGTKVEIK
binding [1]: binds

Second part, the binder after the results:

binding [1]: binds
B1: scFv C02 (scFv)
scFv: QVQLVQSGAEVKKPGSSVKVSCKASGGTFSSYTISWVRQAPGQGLEWMGRIIPILGIANYAQKFQGRVTITADKSTSTAYMELSSLRSEDTAVYYCARDRSYNWLDPWGRGTLVTVSSGGGGSGGGGSGGGASQSALTQPVSVSGSPGQSITISCTGTISDVGDYNYVSWYQQHPGKAPKLMIYDVNNRPSGVSNRFSGSKSGNTASLTISGLQAEDEADYYCSSYTSSSTLVFGGGTKLTVL

binding [2]: binds
B2: scFv A08 (scFv)
scFv: EVQLLESGGGLVQPGGSLRLSCAASGFTFSSYWMSWVRQAPGKGLEWVANIKQDGSEKYYVDSVKGRFTISRDNAKNSLYLQMNSLRAEDTAVYYCAKAPWYSSSPTPYGMDVWGQGTLVTVSSGGGGSGGGGSGGGASDIQMTQSPSSLSASVGDRVTITCQASQDISNYLNWYQQKPGKAPRRLIYGASTLMSGVPSRFSGSGSGTDFTLTISSLQPEDFATYYCQQSYSTPLTFGGGTKVEIK

binding [1]: binds
B3: scFv A02 (scFv)
scFv: B5 scFv with T227A, S228G

binding [1]: binds
B4: scFv A04 (scFv)
scFv: B5 scFv with V233Y

binding [1]: binds
B9: scFv A03 (scFv)
scFv: QVQLVQSGAEVKKPGSSVKVSCKASGGTFSSYTISWVRQAPGQELEWMGRIIPILGIANYAQKFQGRVTITADKSTSTAYMELSSLRSEDTAVYYCARDYSSSWNSMDVWGQGTLVTVSSGGGGSGGGGSGGGASQSGLTQPPSASGSPGQSVTISCTGTSSDIGYYHYVSWYQQHPGKAPKLMIYEDSKRPSGISNRFSGSKSGTTASLTVSGLQAEDEAHYYCSSFTSRSTWVFGGGTQLTVL

binding [1]: binds
B10: scFv B12 (scFv)
scFv: QVQLVESGGGLVKPGGSLRLSCAASGFTFSSYSMNWVRQAPGKGLEWVSVIYSGGSTHYADSVKGRFTISRHNSKNTLYLQMNSLRAEDTAVYYCARGAGTLNAFDIWGQGTTVTVSSGGGGSGGGGSGGGASQSGLTQPPSTSGSPGQSVTISCTGTSSDVGAYSYVSWYQQHPGKAPKLLIYAVTKRPSGVPDRFSGSKSGNTASLTVSGLQDEDEADYYCSSFAGGSTLVFGGGTKLTVL
